Results deposited as PubChem BioAssay AID686943 (Drosophila RNAi Screening Center, 2013)
Aim: 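Fly genes whose loss alters ERK activation after insulin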 (primary screen). Cells: Drosophila S2R+ haemocyte-like cells expressing YFP-tagged ERK (Rolled). Reagent: long dsRNA against Drosophila genes. Conditions: insulin stimulation versus unstimulated cells; dose and duration not given. Detection: 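Antibody staining for doubly phosphorylated ERK divided by ERK-YFP signal, as plate z-scores, in insulin-treated and untreated cells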. Reading the numbers: replicate 1, z-score of dpERK with insulin and replicate 2, z-score of dpERK with insulin: higher = more active ERK per ERK-YFP after insulin.
The screen tested about 23,000 reagents; this is a random part of those that have a named target and a result. 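Extra replicates exist only for a retested subset of genes; insulin dose and duration not given; both raised and lowered dpERK matter.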 A plus sign joins genes that one reagent is predicted to hit. Not all columns of the deposit are shown. The record does not give: the amount of reagent, the time to read-out.

CG34436 [DRSC15164] | replicate 1, z-score of dpERK with insulin = -0.17; replicate 2, z-score of dpERK with insulin = -0.04
CG9380 [DRSC04549] | replicate 1, z-score of dpERK with insulin = 0.75; replicate 2, z-score of dpERK with insulin = -0.24
Ntf-2 (Nuclear transport factor-2) [DRSC20552] | replicate 1, z-score of dpERK with insulin = 0.71; replicate 2, z-score of dpERK with insulin = 1.72
CG12093 [DRSC08252] | replicate 1, z-score of dpERK with insulin = 0.07; replicate 2, z-score of dpERK with insulin = -0.41
fd3F + CR42499 [DRSC18160] | replicate 1, z-score of dpERK with insulin = -0.24; replicate 2, z-score of dpERK with insulin = -0.09
fd3F + CR42499 [DRSC18161] | replicate 1, z-score of dpERK with insulin = 0.22; replicate 2, z-score of dpERK with insulin = 0.22
CG7912 [DRSC16343] | replicate 1, z-score of dpERK with insulin = 7.13; replicate 2, z-score of dpERK with insulin = 0.84
CG17928 [DRSC02644] | replicate 1, z-score of dpERK with insulin = -0.9; replicate 2, z-score of dpERK with insulin = -0.03
CG30089 [DRSC06126] | replicate 1, z-score of dpERK with insulin = -0.77; replicate 2, z-score of dpERK with insulin = 0.55
CG30089 [DRSC06127] | replicate 1, z-score of dpERK with insulin = -9.1; replicate 2, z-score of dpERK with insulin = -5.7
CG30089 [DRSC06267] | replicate 1, z-score of dpERK with insulin = 0.93; replicate 2, z-score of dpERK with insulin = 0.33
CG30089 [DRSC06268] | replicate 1, z-score of dpERK with insulin = -0.7; replicate 2, z-score of dpERK with insulin = 0.02
CG30089 [DRSC21694] | replicate 1, z-score of dpERK with insulin = 0.11; replicate 2, z-score of dpERK with insulin = -0.12
Gasz [DRSC06829] | replicate 1, z-score of dpERK with insulin = -0.11; replicate 2, z-score of dpERK with insulin = 0.04
rdgBbeta [DRSC07672] | replicate 1, z-score of dpERK with insulin = 0.01; replicate 2, z-score of dpERK with insulin = 0.19
CG9717 [DRSC16543] | replicate 1, z-score of dpERK with insulin = 0.11; replicate 2, z-score of dpERK with insulin = -0.2
dind (diamond) [DRSC16294] | replicate 1, z-score of dpERK with insulin = 0.39; replicate 2, z-score of dpERK with insulin = -0.02
Mnat9 (microtubule-associated Nat9) [DRSC14325] | replicate 1, z-score of dpERK with insulin = -0.29; replicate 2, z-score of dpERK with insulin = -0.22
Gnmt (Glycine N-methyltransferase) [DRSC15987] | replicate 1, z-score of dpERK with insulin = -0.03; replicate 2, z-score of dpERK with insulin = 0
Obp8a (Odorant-binding protein 8a) [DRSC17868] | replicate 1, z-score of dpERK with insulin = -0.18; replicate 2, z-score of dpERK with insulin = -0.45
Cka (Connector of kinase to AP-1) [DRSC03476] | replicate 1, z-score of dpERK with insulin = -0.05; replicate 2, z-score of dpERK with insulin = 0.08
Cka (Connector of kinase to AP-1) [DRSC22858] | replicate 1, z-score of dpERK with insulin = -5.09; replicate 2, z-score of dpERK with insulin = -1.93

2 entries from above, sorted by “replicate 2, z-score of dpERK with insulin”, ascending:
CG30089 [DRSC21694] | replicate 1, z-score of dpERK with insulin = 0.11; replicate 2, z-score of dpERK with insulin = -0.12
CG30089 [DRSC06268] | replicate 1, z-score of dpERK with insulin = -0.7; replicate 2, z-score of dpERK with insulin = 0.02
